Values of other authors, collected in patent US11654036B2, “Anticoagulant compounds and methods and devices for their use” (priority 2020, dated 2023).
Values joined by “and” are separate entries in the source; they are usually repeats but may differ in a detail not shown here. Identical values can stand only once. At least one compound was matched to its structure with a doubt left.

Tested on: cell proliferation
Conditions: cited from earlier work

In the case of `CO[C@H]1C[C@@H]2CC[C@@H](C)[C@@](O)(O2)C(=O)C(=O)N2CCCC[C@H]2C(=O)O[C@H]([C@H](C)C[C@@H]2CC[C@@H](O)[C@H](OC)C2)CC(=O)[C@H](C)/C=C(\C)[C@@H](O)[C@@H](OC)C(=O)[C@H](C)C[C@H](C)/C=C/C=C/C=C/1C` [Sirolimus, rapamycin (also called sirolimus)], the IC50 is listed as ~100 pM and 100 pM and the “IC50 for cell proliferation” value is listed as ~0.0001 ng/mg.
